# Some of the results follow. Repeats are few or missing, and single values can be far off.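 Imaging used 1,536-well plates; nuclei positive for cleaved PARP by antibody were divided by total DNA-stained nuclei to yield the apoptosis fraction. Doses for screening kept most cells viable, and cell lines differ markedly in resting and induced cleaved-PARP levels.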
# How the values were obtained:
# Assay in all cases: cleaved PARP positive nuclei fraction relative to DMSO control; melanoma cells; higher = more apoptosis
# Settings in all cases: library dose: low library concentration; 72 h
# WM115 = system: WM115
# WM1716 = system: WM1716
# WM1745 = system: WM1745
# WM3526 = system: WM3526
# WM3619 = system: WM3619
# WM451Lu = system: WM451Lu
smiles,measurement,setting,value
"CN(c1ncccc1CNc1nc(Nc2ccc3c(c2)CC(=O)N3)ncc1C(F)(F)F)S(C)(=O)=O + Cc1cc(N2CCOCC2)cc2[nH]c(-c3c(NC[C@@H](O)c4cccc(Cl)c4)cc[nH]c3=O)nc12 [BMS536924] (first compound 0.08 µM, partner dose 0.2 µM)",cleaved PARP positive nuclei fraction,WM115,111%
same,cleaved PARP positive nuclei fraction,WM1716,87.3%
same,cleaved PARP positive nuclei fraction,WM1745,141%
same,cleaved PARP positive nuclei fraction,WM3526,64.2%
same,cleaved PARP positive nuclei fraction,WM3619,101%
same,cleaved PARP positive nuclei fraction,WM451Lu,63.2%
"COc1ccc(C2=N[C@@H](c3ccc(Cl)cc3)[C@@H](c3ccc(Cl)cc3)N2C(=O)N2CCNC(=O)C2)c(OC(C)C)c1 [Nutlin-3] + CN1CCN(c2ccc3nc(-c4c(N)c5c(F)cccc5[nH]c4=O)[nH]c3c2)CC1 [Dovitinib] (first compound 0.1 µM, partner dose 0.1 µM)",cleaved PARP positive nuclei fraction,WM115,273%
same,cleaved PARP positive nuclei fraction,WM1716,99.2%
same,cleaved PARP positive nuclei fraction,WM1745,121%
same,cleaved PARP positive nuclei fraction,WM3526,37.8%
same,cleaved PARP positive nuclei fraction,WM3619,108%
same,cleaved PARP positive nuclei fraction,WM451Lu,78.7%
"CS(=O)(=O)c1ccc(C(=O)Nc2ccc(Cl)c(-c3ccccn3)c2)c(Cl)c1 [vismodegib] + CC(=O)O[C@@]12CO[C@@H]1C[C@H](O)[C@@]1(C)C(=O)[C@H](O)C3=C(C)[C@@H](OC(=O)[C@H](O)[C@@H](NC(=O)OC(C)(C)C)c4ccccc4)C[C@@](O)([C@@H](OC(=O)c4ccccc4)[C@H]21)C3(C)C [Docetaxel] (first compound 1 µM, partner dose 0.0001 µM)",cleaved PARP positive nuclei fraction,WM115,174%
same,cleaved PARP positive nuclei fraction,WM1716,533%
same,cleaved PARP positive nuclei fraction,WM1745,156%
same,cleaved PARP positive nuclei fraction,WM3526,195%
same,cleaved PARP positive nuclei fraction,WM3619,112%
same,cleaved PARP positive nuclei fraction,WM451Lu,199%
"CC(=O)O[C@@]12CO[C@@H]1C[C@H](O)[C@@]1(C)C(=O)[C@H](O)C3=C(C)[C@@H](OC(=O)[C@H](O)[C@@H](NC(=O)OC(C)(C)C)c4ccccc4)C[C@@](O)([C@@H](OC(=O)c4ccccc4)[C@H]21)C3(C)C [Docetaxel] + Cc1cc(Nc2cc(N3CCN(C)CC3)nc(/C=C/c3ccccc3)n2)n[nH]1 [ENMD2076] (first compound 0.0001 µM, partner dose 0.04 µM)",cleaved PARP positive nuclei fraction,WM115,79.4%
same,cleaved PARP positive nuclei fraction,WM1716,65.6%
same,cleaved PARP positive nuclei fraction,WM1745,147%
same,cleaved PARP positive nuclei fraction,WM3526,67.1%
same,cleaved PARP positive nuclei fraction,WM3619,144%
same,cleaved PARP positive nuclei fraction,WM451Lu,61.5%
"COc1ccc(C2=N[C@@H](c3ccc(Cl)cc3)[C@@H](c3ccc(Cl)cc3)N2C(=O)N2CCNC(=O)C2)c(OC(C)C)c1 [Nutlin-3] + COc1ccc(COc2ccc(Cc3cnc(N)nc3N)cc2OC)cc1 [GW2580] (first compound 0.1 µM, partner dose 1 µM)",cleaved PARP positive nuclei fraction,WM115,113%
same,cleaved PARP positive nuclei fraction,WM1716,77%
same,cleaved PARP positive nuclei fraction,WM1745,119%
same,cleaved PARP positive nuclei fraction,WM3526,182%
same,cleaved PARP positive nuclei fraction,WM3619,97.2%
same,cleaved PARP positive nuclei fraction,WM451Lu,77.7%
"CCCCCCCCc1ccc(CCC(N)(CO)CO)cc1 [fingolimod] + C[C@@H](Oc1cc(-c2cnn(C3CCNCC3)c2)cnc1N)c1c(Cl)ccc(F)c1Cl [Crizotinib] (first compound 2 µM, partner dose 0.2 µM)",cleaved PARP positive nuclei fraction,WM115,35.8%
same,cleaved PARP positive nuclei fraction,WM1716,84.7%
same,cleaved PARP positive nuclei fraction,WM1745,123%
same,cleaved PARP positive nuclei fraction,WM3526,83.4%
same,cleaved PARP positive nuclei fraction,WM3619,99.7%
same,cleaved PARP positive nuclei fraction,WM451Lu,51.4%
"CN(c1ncccc1CNc1nc(Nc2ccc3c(c2)CC(=O)N3)ncc1C(F)(F)F)S(C)(=O)=O + O=C(Nc1ccccc1)c1cc([N+](=O)[O-])ccc1Cl [GW9662] (first compound 0.08 µM, partner dose 2 µM)",cleaved PARP positive nuclei fraction,WM115,75.5%
same,cleaved PARP positive nuclei fraction,WM1716,100%
same,cleaved PARP positive nuclei fraction,WM1745,94.7%
same,cleaved PARP positive nuclei fraction,WM3526,61.2%
same,cleaved PARP positive nuclei fraction,WM3619,77.8%
same,cleaved PARP positive nuclei fraction,WM451Lu,473%
"CC(=O)O[C@@]12CO[C@@H]1C[C@H](O)[C@@]1(C)C(=O)[C@H](O)C3=C(C)[C@@H](OC(=O)[C@H](O)[C@@H](NC(=O)OC(C)(C)C)c4ccccc4)C[C@@](O)([C@@H](OC(=O)c4ccccc4)[C@H]21)C3(C)C [Docetaxel] + N#Cc1c(O)c2c(-c3ccc(-c4ccccc4O)cc3)csc2[nH]c1=O [A769662] (first compound 0.0001 µM, partner dose 2 µM)",cleaved PARP positive nuclei fraction,WM115,516%
same,cleaved PARP positive nuclei fraction,WM1716,246%
same,cleaved PARP positive nuclei fraction,WM1745,163%
same,cleaved PARP positive nuclei fraction,WM3526,167%
same,cleaved PARP positive nuclei fraction,WM3619,116%
same,cleaved PARP positive nuclei fraction,WM451Lu,187%
"NC(=O)c1ccc(N(C(N)=O)c2c(F)cccc2F)nc1-c1ccc(F)cc1F + C=CCn1c(=O)c2cnc(Nc3ccc(N4CCN(C)CC4)cc3)nc2n1-c1cccc(C(C)(C)O)n1 [MK1775] (first compound 0.4 µM, partner dose 0.02 µM)",cleaved PARP positive nuclei fraction,WM115,153%
same,cleaved PARP positive nuclei fraction,WM1716,158%
same,cleaved PARP positive nuclei fraction,WM1745,117%
same,cleaved PARP positive nuclei fraction,WM3526,63.2%
same,cleaved PARP positive nuclei fraction,WM3619,166%
same,cleaved PARP positive nuclei fraction,WM451Lu,484%
"Cn1sc(=O)n(Cc2ccccc2)c1=O + CC(C)C[C@H](NC(=O)[C@H](Cc1ccccc1)NC(=O)c1cnccn1)B(O)O [Bortezomib] (first compound 0.4 µM, partner dose 0.001 µM)",cleaved PARP positive nuclei fraction,WM115,117%
same,cleaved PARP positive nuclei fraction,WM1716,73.8%
same,cleaved PARP positive nuclei fraction,WM1745,93.1%
same,cleaved PARP positive nuclei fraction,WM3526,239%
same,cleaved PARP positive nuclei fraction,WM3619,107%
same,cleaved PARP positive nuclei fraction,WM451Lu,54.1%
"CCN(CC)CCNC(=O)c1c(C)[nH]c(/C=C2\C(=O)Nc3ccc(F)cc32)c1C [sunitinib] + O=C(CCCCCCC(=O)Nc1ccccc1)NO [vorinostat] (first compound 0.4 µM, partner dose 0.08 µM)",cleaved PARP positive nuclei fraction,WM115,44.4%
same,cleaved PARP positive nuclei fraction,WM1716,32.7%
same,cleaved PARP positive nuclei fraction,WM1745,107%
same,cleaved PARP positive nuclei fraction,WM3526,74.3%
same,cleaved PARP positive nuclei fraction,WM3619,75.2%
same,cleaved PARP positive nuclei fraction,WM451Lu,92.8%
"CC(=O)O[C@@]12CO[C@@H]1C[C@H](O)[C@@]1(C)C(=O)[C@H](O)C3=C(C)[C@@H](OC(=O)[C@H](O)[C@@H](NC(=O)OC(C)(C)C)c4ccccc4)C[C@@](O)([C@@H](OC(=O)c4ccccc4)[C@H]21)C3(C)C [Docetaxel] + COc1cc2c(Oc3ccc4[nH]c(C)cc4c3F)ncnc2cc1OCCCN1CCCC1 [cediranib] (first compound 0.0001 µM, partner dose 0.4 µM)",cleaved PARP positive nuclei fraction,WM115,300%
same,cleaved PARP positive nuclei fraction,WM1716,599%
same,cleaved PARP positive nuclei fraction,WM1745,191%
same,cleaved PARP positive nuclei fraction,WM3526,540%
same,cleaved PARP positive nuclei fraction,WM3619,147%
same,cleaved PARP positive nuclei fraction,WM451Lu,198%
"C[C@]1(O)C[C@@H](c2nc(-c3ccc4ccc(-c5ccccc5)nc4c3)c3c(N)nccn32)C1 + O=C(O)[C@@H]1[O][Sb](=[O])([O][Sb]2(=[O])[O][C@H]([C@H](O)CO)[C@H](O)[C@H](C(=O)O)[O]2)[O][C@H]([C@H](O)CO)[C@@H]1O [stibogluconate] (first compound 0.4 µM, partner dose 2 µM)",cleaved PARP positive nuclei fraction,WM115,73.8%
same,cleaved PARP positive nuclei fraction,WM1716,220%
same,cleaved PARP positive nuclei fraction,WM1745,126%
same,cleaved PARP positive nuclei fraction,WM3526,50%
same,cleaved PARP positive nuclei fraction,WM3619,106%
same,cleaved PARP positive nuclei fraction,WM451Lu,96.8%

# Random excerpt: 4 entries already listed, in no set order.
smiles,measurement,setting,value
"COc1ccc(C2=N[C@@H](c3ccc(Cl)cc3)[C@@H](c3ccc(Cl)cc3)N2C(=O)N2CCNC(=O)C2)c(OC(C)C)c1 [Nutlin-3] + COc1ccc(COc2ccc(Cc3cnc(N)nc3N)cc2OC)cc1 [GW2580] (first compound 0.1 µM, partner dose 1 µM)",cleaved PARP positive nuclei fraction,WM115,113%
"CS(=O)(=O)c1ccc(C(=O)Nc2ccc(Cl)c(-c3ccccn3)c2)c(Cl)c1 [vismodegib] + CC(=O)O[C@@]12CO[C@@H]1C[C@H](O)[C@@]1(C)C(=O)[C@H](O)C3=C(C)[C@@H](OC(=O)[C@H](O)[C@@H](NC(=O)OC(C)(C)C)c4ccccc4)C[C@@](O)([C@@H](OC(=O)c4ccccc4)[C@H]21)C3(C)C [Docetaxel] (first compound 1 µM, partner dose 0.0001 µM)",cleaved PARP positive nuclei fraction,WM3526,195%
"CC(=O)O[C@@]12CO[C@@H]1C[C@H](O)[C@@]1(C)C(=O)[C@H](O)C3=C(C)[C@@H](OC(=O)[C@H](O)[C@@H](NC(=O)OC(C)(C)C)c4ccccc4)C[C@@](O)([C@@H](OC(=O)c4ccccc4)[C@H]21)C3(C)C [Docetaxel] + Cc1cc(Nc2cc(N3CCN(C)CC3)nc(/C=C/c3ccccc3)n2)n[nH]1 [ENMD2076] (first compound 0.0001 µM, partner dose 0.04 µM)",cleaved PARP positive nuclei fraction,WM115,79.4%
"CC(=O)O[C@@]12CO[C@@H]1C[C@H](O)[C@@]1(C)C(=O)[C@H](O)C3=C(C)[C@@H](OC(=O)[C@H](O)[C@@H](NC(=O)OC(C)(C)C)c4ccccc4)C[C@@](O)([C@@H](OC(=O)c4ccccc4)[C@H]21)C3(C)C [Docetaxel] + COc1cc2c(Oc3ccc4[nH]c(C)cc4c3F)ncnc2cc1OCCCN1CCCC1 [cediranib] (first compound 0.0001 µM, partner dose 0.4 µM)",cleaved PARP positive nuclei fraction,WM1716,599%

# — the supplement of paper PMC4604168 (melanoma cell lines)
